The record followed here is article PMC4530945.

The chains behind the UniProt entries cited, without tags or fusion partners. Residues count along the entry.
UniProt P36544, residues 23-502: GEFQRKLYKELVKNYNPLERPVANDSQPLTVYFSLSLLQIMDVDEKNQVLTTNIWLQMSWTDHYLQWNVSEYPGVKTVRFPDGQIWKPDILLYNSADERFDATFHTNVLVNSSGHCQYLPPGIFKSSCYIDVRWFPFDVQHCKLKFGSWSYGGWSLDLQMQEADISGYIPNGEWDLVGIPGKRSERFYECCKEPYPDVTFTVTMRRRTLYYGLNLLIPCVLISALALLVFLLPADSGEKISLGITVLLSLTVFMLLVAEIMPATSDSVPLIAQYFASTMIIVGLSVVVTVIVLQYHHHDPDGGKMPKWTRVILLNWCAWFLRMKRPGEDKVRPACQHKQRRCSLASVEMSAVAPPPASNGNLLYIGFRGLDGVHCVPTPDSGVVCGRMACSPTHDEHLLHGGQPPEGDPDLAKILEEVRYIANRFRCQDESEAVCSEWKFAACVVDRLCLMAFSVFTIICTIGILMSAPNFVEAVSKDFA
UniProt P60615, residues 22-95: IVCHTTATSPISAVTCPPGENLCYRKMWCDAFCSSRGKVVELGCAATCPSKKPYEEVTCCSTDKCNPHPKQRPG

No constants are given. Whether binding was seen depends on the method and setting.

The target in the test is α7-nicotinic acetylcholine receptor (human) (UniProt P36544). As to the kind of experiment: radioligand binding; only the binder purified.

As for “^125I-α-bgtx (from UniProt P60615 22-95) (ligand)”, the binding result is on record as “no binding (condition: with 5 μM MLA)”.
